Measurements from “University of Dundee, Small-Polar-MMV Screening Library” (2021), ChEMBL document CHEMBL3988442.

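Whole-cell growth test on Mycobacterium tuberculosis, read after 3 days in glucose-containing 7H9 medium; the read-out is not stated. Compounds at 500 µM. The record gives no direction; compounds that gave an IC50 in retests scored well above the rest, so higher reads as more growth inhibition. About 18,000 compounds were tested under these conditions; 7.9% (about 1,400) showed 50% or more at least once.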

Values are the deposited “Percent Effect”, in %.
The record does not define 0% and 100%; most values in the screen are far below 50% and negative numbers occur (in some assays of this library far below -100).
This is an unselected part of the compounds tested.

SMILES | percent effect
O=C(Nc1nc(-c2cccs2)ns1)C1CCCN1 (stereo not drawn) | 19.9
CCOCC(O)CN(C)Cc1cccc(C(N)=O)c1 (stereo not drawn) | 7.428
CN(Cc1cc(=O)n(C)c(=O)n1C)C1CCS(=O)(=O)C1 (stereo not drawn) | -3.374
Cc1ccc(OCC(=O)NC2CCS(=O)(=O)C2)c(Br)c1 (stereo not drawn) | 9.943
CNC[C@@H]1CCC(=O)N1 | -1.784
COc1ccc(C(N)c2ccncc2)cc1 (stereo not drawn) | 10.72
CO[C@H]1[C@@H]2CC[C@H]1CN(C(=O)c1nc(C)c[nH]1)C2 | 18.93
CN1CCCCC1CCC(=O)NCCc1ccncc1 (stereo not drawn) | 6.745
O=C(CCNc1ncc(Br)cn1)NCc1ccccn1 | -13.25
C[C@H](O)CNC(=O)NCC1CCCN1C1CCCCC1 (stereo partly drawn) | 23.22
NC(=O)Cc1csc(-c2ccco2)n1 | 21.87
Cc1[nH]ncc1S(=O)(=O)N1CCOC(C)C1 (stereo not drawn) | -4.919
Cn1ccnc1C(O)c1ccc(F)cc1 (stereo not drawn) | -13.42
CC(C)OCCC(=O)NCC(C)(C)N1CC[S+]([O-])CC1 | -7.252
CC1C(=O)NCCN1C(=O)NCc1cc(F)cc(Br)c1 (stereo not drawn) | -13.02
CC(C)N(CCC(N)=O)CC1CCOC1 (stereo not drawn) | 8.933
CC1(C)OC(=O)N(CCC#N)C1(C)O (stereo not drawn) | -0.7391
Cc1ncsc1CCCNC(=O)CC1C=CS(=O)(=O)C1 (stereo not drawn) | 10.91
CCNC(=O)COc1ccc(N(CC)S(C)(=O)=O)cc1 | -5.014
CN(C)C(=O)CCn1nc2ccccn2c1=O | 18.4
OCC(Nc1ncccc1Br)c1ccccc1 (stereo not drawn) | 67.84
Cc1cccc(C(=O)NCCCNS(C)(=O)=O)c1O | 47.01
CC(=O)Nc1ccc(-c2ccc(C#N)nc2)cc1 | -6.786
N#Cc1ccc(C(=O)NCC2CCCO2)cc1 (stereo not drawn) | 39.03
Cc1n[nH]c(SCC(=O)NC[C@H]2CCCN2)n1 | -2.26
Cc1cc(C)nc(N2CCC2)n1 | 4.606
C[C@@H](NCc1csnn1)c1cccc(O)c1 | -3.649
CCc1cc(C(=O)NCCc2nnc(C)s2)ccn1 | 24.75
N#CCC(=O)c1ccccc1OC(F)F | 35.12
CCN(CC)CC(=O)N(C)Cc1ccncc1 | 1.507
Cc1oc(-c2ccccc2F)nc1C(=O)N(C)C | 21.68
CN1CCCN(C(=O)c2cc3ccccc3[nH]2)CC1 | 15.14
CNC(=O)C1CC(=O)N(C2CCCCC2)C1 (stereo not drawn) | -3.097
CNC(=O)C(C)(C)CNC(=O)Nc1ccncc1F | 32.57
C[C@@H]1C[C@@H](N)c2ccccc2O1 | 49.52
NCc1ccnc(-n2ccnc2)c1 | -3.796
O=C(c1ccc(F)cc1)N1C[C@@H]2CCN[C@@H]2C1 | 8.407
C[C@H](N)c1ccc(F)cc1OC(F)F | 14
COC(=O)Cc1sc(N)nc1C | 7.152
c1cn(C2CCNCC2)nn1 | 97.7
CCS(=O)(=O)N1CCN(c2ccc(C(C)=O)cc2)CC1 | 5.718
CCS(=O)(=O)N(C)CCCNc1cc(C)ccn1 | 27.22
Cc1cc(N)n(CC(=O)N[C@@H]2COCC[C@H]2O)n1 | 4.591
COC(=O)c1n[nH]c2ccc(NC(=O)C(C)C)cc12 | 8.508
CC(CO)N(CC1CCC1)c1ccc2nnnn2n1 (stereo not drawn) | 38.19
NCc1cc(C(N)=O)co1 | -3.84
CCN1Cc2ccccc2CC1C(N)=O (stereo not drawn) | 5.797
Cc1ccnn1CC(=O)N[C@@H]1CCOC[C@H]1O | -4.762
O=C(Cc1cccc(O)c1)NCCn1cc(Cl)cn1 | 16.38
NCC1CCN(C(=O)Cc2ccccc2)C1 (stereo not drawn) | 32.43
CCCC(O)CNS(=O)(=O)c1ccc(C(=O)NC)cc1 (stereo not drawn) | 12.95
COc1ccc(-c2nc(CCN)co2)cc1 | 82.39
CC(C)(O)Cn1nnc(-c2cccs2)n1 | 68.57
CCN1CCN(CC(C)CNc2ccccn2)CC1 (stereo not drawn) | -5.252
Cc1nn(CCNC(=O)CC2COCCN2)c(C)c1Cl (stereo not drawn) | -1.102
O=C(C1CC(c2ccc(Cl)s2)=NO1)N1CCCSCC1 (stereo not drawn) | 16.88
NC1CCC(N2CCCCC2=O)CC1 (stereo not drawn) | -8.871
CCNC(=O)CN(CC)Cc1ccc(C#N)cc1 | 22.98
Cn1cc(C(C)(O)CNc2cccc(F)c2C#N)cn1 (stereo not drawn) | 29.91
CCC(OCCN)c1ccccc1 (stereo not drawn) | 8.486
CCCC(=O)NC1CCN(CCC)CC1 | 6.985
COC(=O)c1ccc(NC(C)=O)cc1 | 3.844
CN(Cc1nnc(N)o1)C(=O)c1ccccc1 | 2.991
CC(C)(CO)NCC(O)c1cccc(Cl)c1 (stereo not drawn) | 8.132
N#CC(CO)Cc1ccco1 (stereo not drawn) | 1.19
COCCNC(=O)CNS(=O)(=O)c1ccc(Br)c(C)c1 | 47.14
COc1cc(C(=O)Nc2nnc[nH]2)cc(Cl)c1OC | -0.4678
Cc1cc(NC(CO)CO)nc2ccccc12 | 8.541
C=C(C)CN1CCC(NC(=O)NCCS(C)(=O)=O)CC1 | 2.837
COC[C@@H]1CN(CCCc2ccccc2)C[C@H]1C(N)=O | 12.38
NC1CC(=O)Nc2ccccc21 (stereo not drawn) | 3.358
CO[C@H]1CN[C@H](c2nncn2C)C1 | 17.05
CC(C)CNc1nc(N)c2cn[nH]c2n1 | 74.7
CN1CCN(C(=O)CC#N)CC1 | -5.7
N[C@@H]1C[C@H]1c1cc(F)ccc1F | 37
CC(N)C(=O)Nc1ccc(-n2cncn2)cc1 (stereo not drawn) | 22.22
CN(Cc1cc(Br)cs1)C(=O)CC1(N)CCC1 | 53.78
NC(=O)CN1CCCN(c2nc3ccccc3o2)CC1 | 8.197
COc1ccc([S+]([O-])Cc2noc(C)n2)cc1 (stereo not drawn) | 49.83
CC(C)(C)CN(CCCO)C(=O)Nc1ccncc1 | 13.04
CN1CCCC(CCO)C1 (stereo not drawn) | 0.5998
Cn1c(=O)[nH]c2ccc(F)cc21 | 13.61
CCOCCCNC(=O)CC#N | 2.671
CC(=O)Nc1ccc(C(C)N)cc1 (stereo not drawn) | 14.57
CC(C)C(=O)NCc1ccccc1CN(C)C | 0.8276
CC(CN)N(C)C(=O)c1ccc(C#N)cc1 (stereo not drawn) | -3.781
CCS(=O)(=O)Cc1cc(=O)n(C)c(=O)n1C | -9.365
CCS(=O)(=O)NC1(CN)CCCC1 | 15.17
Cc1nnnn1CC(=O)NCc1ccco1 | 0.5563
O=C(Nc1nnc[nH]1)c1ccc(N2CCOCC2)nc1 | -8.056
c1cc(OC2CCNCC2)ccn1 | 8.35
O=c1ccc(F)cn1Cc1ccn(-c2ccccc2)n1 | 36.48
O=C(NCC1(Cn2ccnc2)CC1)C1CCOC1 (stereo not drawn) | 12.58
COC(=O)CC(NC(=O)c1ccon1)C1CC1 (stereo not drawn) | -25.65

The first 8 entries again:

* O=C(Nc1nc(-c2cccs2)ns1)C1CCCN1 (stereo not drawn) | 19.9%
* CCOCC(O)CN(C)Cc1cccc(C(N)=O)c1 (stereo not drawn) | 7.428%
* CN(Cc1cc(=O)n(C)c(=O)n1C)C1CCS(=O)(=O)C1 (stereo not drawn) | -3.374%
* Cc1ccc(OCC(=O)NC2CCS(=O)(=O)C2)c(Br)c1 (stereo not drawn) | 9.943%
* CNC[C@@H]1CCC(=O)N1 | -1.784%
* COc1ccc(C(N)c2ccncc2)cc1 (stereo not drawn) | 10.72%
* CO[C@H]1[C@@H]2CC[C@H]1CN(C(=O)c1nc(C)c[nH]1)C2 | 18.93%
* CN1CCCCC1CCC(=O)NCCc1ccncc1 (stereo not drawn) | 6.745%